From patent publication US20150346208A1 (SPRING BIOSCIENCE, published 2015)
No constants are given. Whether binding was seen depends on the method and setting. Some entries that bind do so weakly or less than the wild type.

Amino acid sequences for entries named in this document (tags omitted). Residues count along the entry.
UniProt Q9NZQ7, residues 19-290: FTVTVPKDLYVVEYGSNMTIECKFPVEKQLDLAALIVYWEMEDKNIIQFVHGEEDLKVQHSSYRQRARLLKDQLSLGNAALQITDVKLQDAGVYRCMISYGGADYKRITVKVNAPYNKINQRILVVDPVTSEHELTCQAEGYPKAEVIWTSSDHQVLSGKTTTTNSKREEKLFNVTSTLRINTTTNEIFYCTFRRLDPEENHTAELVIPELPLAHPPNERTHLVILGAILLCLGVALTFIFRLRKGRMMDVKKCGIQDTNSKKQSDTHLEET

Legend:
[1] = target: T1, human PD-L1 (Programmed death ligand-1) (human, UniProt Q9NZQ7 19-290); assay: IHC on FFPE placenta, 0.9 µg/ml
T1 construct: whole, on cells; Endogenous protein; For IHC it was in formalin-fixed, paraffin-embedded tissue sections; for the Western blot it was in SDS-PAGE-fractionated cell lysates (45-55 kDa band); also called B7-H1; PDCD1L1
Experimental: Rabbit anti-human PD-L1 monoclonal antibodies SP263, J45H2L4 and J27H6L4 were applied onto formalin-fixed paraffin embedded (FFPE) tissue samples to assess the staining patterns of these antibodies. Tissue samples include placenta (positive control), stomach (negative control) and colon. Immunohistochemistry was performed on BenchMark Ultra (Ventana Medical System) using StdCC1 cell conditioning and standard Opt iView DAB detection protocol. Each primary antibody was incubated at 0.9 μg/ml for 16 min.

[2] = target: T1, human PD-L1 (Programmed death ligand-1); assay: IHC on FFPE placenta (legend of FIG. 4G)

B1: J27H6L4 rabbit anti-human PD-L1 monoclonal antibody (antibody, V domains shown)
VH: QSLEESGGRLVTPGTPLTLTCTVSGFSLSSHAISWVRQAPGKGLEWIGTINSDSHTYYATWAKGRFTSSKTSTTVDLKLTSPTTEDTATYFCARRIFSSSNIWGPGTLVTVSS
VL: VMTQTSSPVSAAVGGTVTINCQASQSIYNNNWLSWFQQKPGQPPKLLIYLASTLASGVPSRFKGSGSGTQSTLTISDVVCDDAATYYCIGGESSNTDGIAFGGGTEVVVE
[1]
  binding: binds
[2]
  binding: binds
